We go through 61 molecules from PubChem BioAssay AID493014 (National Center for Advancing Translational Sciences (NCATS), 2011).

The test in a line: qHTS Assay to Find Inhibitors of Chronic Active B-Cell Receptor Signaling. The conditions noted are these: ABC-DLBCL IkBa-CBG/CBR reporter, luminescence ratio (green luciferase fused to IkBa over red control in TMD8 lymphoma cells), 4 h. In short, it runs like this:
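TMD8 human ABC-DLBCL cells with doxycycline-inducible IκBα–green luciferase fusion and unfused red luciferase, in 0.5% FBS medium; compounds up to 46 uM, 4 h at 37C. Green/red luminescence ratio, filter-overlap corrected, fitted to concentration-response curves.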
A general note: Quantitative high-throughput screening tests each substance at several concentrations.

Setting [1] is: measured here: CBR red luminescence, cell number.
[2] abbreviates: measured here: IkBa-CBG green luminescence.

Some of the results follow. These are further read-outs of the screen, such as a control signal, another cell line or another target. No call is given for them. Most of these compounds were active or inconclusive in the main read-out, so they are no random draw. Words in brackets tell the shape of the fitted curve; partial curves, single points and poor fits give uncertain potencies.

As a reminder, the AC50 is the midpoint of the concentration-response curve, whichever way the signal moves. Turning to `CC(=O)c1sc(NC(=O)c2ccccc2C)nc1C`, the AC50 under setting [1] is 1.26 µM [falling, full curve].

As for `Cc1cc(N/C=C/C(=O)c2ccccc2)ccc1Br`, the AC50 under setting [1] was 2.82 µM [falling, partial curve, poor fit]. On the same count and under the same terms, the value for `CC(C)[C@H](NC(=O)[C@@H]1Cc2c([nH]c3ccccc23)C2c3ccccc3C(=O)N21)C(=O)NCC1CCCO1` (stereo partly specified) was 11.2 µM [falling, single point]; that for `C=CCN1N=C(/C=C/c2ccc(C)cc2)CCC1=O` was 11.2 µM [rising, partial curve]. On to `CCOC(=O)Cc1c(C)nc2cc(-c3ccc(C(C)(C)C)cc3)[nH]n2c1=O`, for which the AC50 under setting [1] is 0.0731 µM [rising, full curve, poor fit]. Consider `Brc1ccc(-c2nnc(-c3ccccc3)o2)o1`, for which the AC50 under setting [1] is 16.4 µM [falling, single point].

As to `Nc1nn(-c2cccc(F)n2)cc1-c1ccccc1`, the AC50 under setting [1] is 11.2 µM [falling, partial curve].

For `CC(OC(=O)c1ccc(CN2CCCC2=O)cc1)C(=O)Nc1ccc(Cl)cc1` (stereo unspecified), under setting [1], the AC50 was 29.1 µM [rising, single point]. Same read-out and setting: as for `Cn1c(CCNC(=O)c2ccco2)nc2cc(NC(=O)c3ccccc3Cl)ccc21`, the figure is 11.2 µM [falling, partial curve, poor fit].

Consider `COc1cccc(C(=O)Nc2ccc3[nH]ncc3c2)c1`, for which the AC50 under setting [1] is 15.8 µM [falling, partial curve, poor fit].

As for `CCOc1ccc(NC(=O)c2cccc(OC(=S)N3CCC(C)CC3)c2)cc1`, under setting [1], the AC50 is 35.5 µM [falling, single point]. Turning to `COc1ccc(NC(=O)CSc2nccn2Cc2ccccc2)c(OC)c1`, under setting [1], the AC50 was 10 µM [falling, partial curve]. For `O=C(Cn1cnc2c(NCc3ccccc3)ncnc21)NCc1ccccc1`, the AC50 is 18.4 µM [rising, single point] under setting [1] and 20.6 µM [falling, single point] under setting [2]. With `CN(CCNC(=O)c1cc2c(=O)n(C)c3ccccc3c2n1C)Cc1ccccc1`, the AC50 under setting [1] is 14.6 µM [falling, partial curve, poor fit]. On to `O=C(COC(=O)C1CC1)c1c[nH]c2ccccc12`, for which the AC50 under setting [1] was 5.8 µM [falling, single point]. For `O=C(Nc1ccc([N+](=O)[O-])cn1)c1ccc2c(c1)OCO2`, under setting [1], the AC50 was 2.51 µM [falling, full curve, poor fit]. In the case of `CCC(=O)Nc1ccc(C(=O)Cn2ncc(Cl)c(Cl)c2=O)cc1`, the AC50 under setting [1] is 35.5 µM [falling, single point]. `O=C1C=C(c2ccnc3cc(Cl)ccc23)C[C@@H](c2ccc3c(c2)OCO3)C1`: the concentration at half-maximal activity (AC50) is, setting by setting: under setting [1], 16.4 µM [falling, partial curve]; under setting [2], 8.2 µM [rising, partial curve, poor fit]. Turning to `Cc1ccc(NC(=O)CSc2nc3ccccc3c(=O)n2CCCC(=O)NCCCN2CCOCC2)cc1C`, the AC50 under setting [1] is 0.562 µM [rising, full curve, poor fit]. Still for that read-out and setting: the value for `Cc1cc(C)c(NC(=O)CN(C)C(=O)CCC(=O)c2ccc(C)s2)c(C)c1` was 0.92 µM [rising, full curve, poor fit].

With `CCCNc1nc(C)cc(-c2cc(C(=O)NCc3ccccc3)on2)n1`, the AC50 under setting [1] is 12.6 µM [falling, partial curve, poor fit]. For `Cc1cnc(C(=O)OCC(=O)Nc2cc(-c3cc(C)c(C)cc3C)nn2-c2ccccc2)cn1`, the AC50 under setting [1] is 6.51 µM [rising, partial curve, poor fit]. The same measure, in the same setting: as for `CC(=O)c1c(C)[nH]c(C(=O)OCC(=O)NCc2ccc(Cl)cc2)c1C`, the figure is 20.6 µM [falling, single point].

For `Cc1ccc(S(=O)(=O)c2nnn(-c3ccc(F)c(Cl)c3)c2N)cc1`, the AC50 under setting [1] is 0.355 µM [rising, partial curve, poor fit]. In the case of `Cc1ccccc1Nc1nnc(SCC(=O)NC(=O)NCc2ccco2)s1`, the AC50 under setting [1] was 20 µM [falling, partial curve, poor fit]. As to `CC(c1ccco1)N(C(=O)c1ccccc1NS(=O)(=O)c1ccc(Cl)c([N+](=O)[O-])c1)c1ccccn1` (stereo unspecified), the AC50 under setting [1] was 20.6 µM [falling, single point]. On the same count and under the same terms, the value for `COc1cccc(NC(=O)c2cccc(Cl)c2)c1` was 9.2 µM [falling, partial curve]; that for `COC(=O)c1ccccc1NC(=O)C1=CC(c2cccs2)=NS(=O)(=O)N1C` was 0.631 µM [falling, full curve, poor fit]. Turning to `COc1cc2cnc(-c3ccccc3)c(C(=O)c3ccc(F)cc3)c2cc1OC`, the AC50 was 18.4 µM [falling, single point] under setting [1] and 16.4 µM [rising, partial curve, poor fit] under setting [2]. On to `CCC(C(=O)N1CCN(c2cccc(Cl)c2)CC1)c1ccccc1` (stereo unspecified), for which, under setting [1], the AC50 was 14.6 µM [falling, partial curve, poor fit]. As to `CC(/C=C/c1ccccc1)=N\NC(=O)Cn1cncn1`, the AC50 under setting [1] is 35.5 µM [rising, single point]. Same read-out and setting: the value for `CCCCC1CCC(c2nc(-c3cccnc3)no2)CC1` (stereo unspecified) was 3.16 µM [rising, partial curve, poor fit]. Same read-out and setting: as for `Cc1ccc(C)c2c1sc(=NC(=O)CN1C(=O)CCC1=O)n2C`, the figure is 23.1 µM [falling, single point]. On the same count and under the same terms, the value for `CN(C)c1ccc(C(=O)Nc2cccc(S(=O)(=O)NC3=NCCCCC3)c2)cc1` was 10.3 µM [falling, partial curve]; that for `Cc1ccnc(NC(=O)c2ccc(C(=O)c3ccccc3)cc2)c1` was 16.4 µM [falling, single point].

`Cc1cc(NC(=O)c2ccc(Br)cc2)nc(C)n1`: the AC50 under setting [1] is 15.8 µM [falling, partial curve, poor fit]. For the molecule `O=C1CCCC/C1=C\Nc1ccc(Cl)cn1`, the AC50 under setting [1] is 0.461 µM [rising, partial curve, poor fit].

With `CCCCCCCn1c(=N)n(CC(O)c2ccco2)c2ccccc21` (stereo unspecified), the half-maximal activity concentration (AC50) under setting [1] is 11.2 µM [falling, single point]. With `NCCOc1ccccc1OCCN`, the AC50 under setting [1] is 35.5 µM [falling, single point]. On the same count and under the same terms, as for `CCOc1ccc(S(=O)(=O)N2CCCCC2)cc1NC(=O)Cc1cccc(C(F)(F)F)c1`, the figure is 20.6 µM [rising, partial curve, poor fit]; as for `O=C(O)CCCCCNC(=O)C(=O)C1C(=O)Nc2ccccc21` (stereo unspecified), 7.94 µM [falling, partial curve]. In the case of `CC(=O)Nc1ccc(NC(=O)C/C(C)=N/NC(=O)c2cccc3ccccc23)cc1`, the AC50 under setting [1] is 2 µM [falling, full curve]. On the same count and under the same terms, the value for `COc1ccc(CCn2c(-c3cc([N+](=O)[O-])cc([N+](=O)[O-])c3)nc3nc4ccccc4nc32)cc1` was 20.6 µM [rising, partial curve, poor fit]. On the same count and under the same terms, as for `O=C(Cc1cc(C(=O)O)c2ccccc2n1)Nc1ccccc1`, the figure is 10 µM [falling, partial curve, poor fit]; as for `COc1ccc(-c2c(C)n([O-])c3c([n+]2=O)CCCCC3)cc1OC`, 35.5 µM [rising, single point]. Turning to `Cc1cc(C)nc(NC(=O)/C=C/c2ccc(Cl)cc2)n1`, under setting [1], the AC50 is 7.94 µM [falling, partial curve]. As to `CC(C)C(=O)NC(=S)Nc1ccc(S(=O)(=O)NC2CCCCC2)cc1`, the AC50 under setting [1] was 35.5 µM [falling, single point]. Still for that read-out and setting: as for `COc1ccc(N2CCN(C(=O)c3cccc(S(=O)(=O)N4CCOCC4)c3)CC2)cc1`, the figure is 23.1 µM [falling, single point]; as for `CCOC(=O)[C@H]1[C@H]2COc3ccc(C)cc3[C@@H]2N2C(=O)CN(Cc3ccco3)C(=O)[C@@]12C`, 14.6 µM [falling, partial curve, poor fit]. On to `CC(=O)Nc1ccc(CN2CCN(Cc3ccc(C)cc3)C(CCO)C2)cc1` (stereo unspecified), for which the AC50 under setting [1] was 35.5 µM [falling, single point]. On to `COC(=O)c1ccc(CSC2=NCCS2)cc1`, for which the AC50 under setting [1] was 2.91 µM [rising, full curve, poor fit]. `O=C(Nc1nc2c(F)cc(F)cc2s1)c1ccccn1`: the AC50 is 3.55 µM [falling, full curve, poor fit] under setting [1] and 3.16 µM [falling, full curve] under setting [2]. Regarding `Cc1ccc(C)c(NC(=O)CN(C)C(=O)c2ccccc2OCc2ccccc2Cl)c1`, the AC50 under setting [1] is 25.9 µM [falling, single point].

`CCOC(=O)c1[nH]cnc1C(=O)NC1CCN(C(=O)OC(C)(C)C)CC1`: under setting [1], the AC50 is 5.8 µM [rising, partial curve, poor fit]. Same read-out and setting: as for `COC(=O)c1ccc(C(=O)OC)c(NC(=O)COc2ccccc2OC)c1`, the figure is 25.9 µM [falling, partial curve, poor fit]. For `Cc1ccc(-n2ncc3c(Nc4cccc(C(=O)O)c4)ncnc32)cc1`, the AC50 under setting [1] is 10.3 µM [falling, partial curve] and the AC50 under setting [2] is 1.84 µM [rising, partial curve, poor fit]. `O=C(Nc1ccccc1N1CCN(C(=O)c2ccccc2)CC1)c1ccco1`: the concentration at half-maximal activity (AC50) under setting [1] is 25.1 µM [falling, single point]. Consider `CCCOc1ccc(C(=O)CCC(=O)OCC(=O)Nc2cc(C)on2)cc1`, for which the AC50 under setting [1] was 16.4 µM [rising, partial curve, poor fit]. Still for that read-out and setting: as for `Cc1nc2ccc(NS(=O)(=O)c3cccc([N+](=O)[O-])c3)cc2s1`, the figure is 29.1 µM [falling, single point]; as for `Cc1cccc(/C=C/c2onc(C)c2S(=O)(=O)N2CCC(C(=O)N3CCCCC3)CC2)c1`, 1.26 µM [rising, partial curve, poor fit]; as for `CCN(CC)CCCN=C1N[C@@H](c2cccc(F)c2)C(C(=O)OC)=C(C)N1Cc1ccccc1`, 13 µM [falling, partial curve, poor fit].
